# Measured values: article PMC9788671
# The chains behind the UniProt entries cited, without tags or fusion partners.
# UniProt Q9NZV8: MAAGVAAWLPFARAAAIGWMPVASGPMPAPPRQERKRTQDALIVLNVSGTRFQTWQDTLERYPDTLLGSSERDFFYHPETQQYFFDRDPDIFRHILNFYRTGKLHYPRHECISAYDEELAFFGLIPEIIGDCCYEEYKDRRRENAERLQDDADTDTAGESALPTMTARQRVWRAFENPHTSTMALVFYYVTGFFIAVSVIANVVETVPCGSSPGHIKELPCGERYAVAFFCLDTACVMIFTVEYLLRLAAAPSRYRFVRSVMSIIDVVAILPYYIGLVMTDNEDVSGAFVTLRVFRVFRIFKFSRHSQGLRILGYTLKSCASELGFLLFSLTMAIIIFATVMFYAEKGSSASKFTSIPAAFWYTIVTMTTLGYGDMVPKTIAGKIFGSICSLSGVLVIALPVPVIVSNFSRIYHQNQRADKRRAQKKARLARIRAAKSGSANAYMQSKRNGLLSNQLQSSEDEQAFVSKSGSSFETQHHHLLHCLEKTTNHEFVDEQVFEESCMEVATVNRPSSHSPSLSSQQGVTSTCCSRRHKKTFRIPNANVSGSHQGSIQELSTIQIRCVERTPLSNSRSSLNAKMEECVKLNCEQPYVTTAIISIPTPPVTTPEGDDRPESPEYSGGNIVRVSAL
# B1: Slc25a3 (protein, UniProt P16036 45-356)
# chain: AVEGYSCEFGSMKYYALCGFGGVLSCGLTHTAVVPLDLVKCRMQVDPQKYKGIFNGFSITLKEDGVRGLAKGWAPTLIGYSMQGLCKFGFYEVFKALYSNILGEENTYLWRTSLYLAASASAEFFADIALAPMEAAKVRIQTQPGYANTLREAVPKMYKEEGLNAFYKGVAPVWMRQIPYTMMKFACFERTVEALYKFVVPKPRSECTKAEQLVVTFVAGYIAGVFCAIVSHPADSVVSVLNKEKGSTASQVLQRLGFRGVWKGLFARIIMIGTLTALQWFIYDSVKVYFRLPRPPPPEMPESLKKKLGLTE
# B2: Ppp2r2a (protein, UniProt P36876 1-447)
# chain: MAGAGGGNDIQWCFSQVKGAVDDDVAEADIISTVEFNHSGELLATGDKGGRVVIFQQEQENKIQSHSRGEYNVYSTFQSHEPEFDYLKSLEIEEKINKIRWLPQKNAAQFLLSTNDKTIKLWKISERDKRPEGYNLKEEDGRYRDPTTVTTLRVPVFRPMDLMVEASPRRIFANAHTYHINSISINSDYETYLSADDLRINLWHLEITDRSFNIVDIKPANMEELTEVITAAEFHPNSCNTFVYSSSKGTIRLCDMRASALCDRHSKLFEEPEDPSNRSFFSEIISSISDVKFSHSGRYMMTRDYLSVKVWDLNMENRPVETYQVHEYLRSKLCSLYENDCIFDKFECCWNGSDSVVMTGSYNNFFRMFDRNTKRDITLEASRENNKPRTVLKPRKVCASGKRKKDEISVDSLDFNKKILHTAWHPKENIIAVATTNNLYIFQDKVN
# B3: Ca1 (protein, UniProt B0BNN3 1-261)
# chain: MASADWGYDSKNGPDQWSKLYPIANGNNQSPIDIKTSEAKHDSSLKPVSVSYNPATAKEIVNVGHSFHVVFDDSSNQSVLKGGPLADSYRLTQFHFHWGNSNDHGSEHTVDGAKYSGELHLVHWNSAKYSSAAEAISKADGLAIIGVLMKVGPANPNLQKVLDALSSVKTKGKRAPFTNFDPSSLLPSSLDYWTYFGSLTHPPLHESVTWVICKESISLSPEQLAQLRGLLSSAEGEPAVPVLSNHRPPQPLKGRTVRASF
# B4: Mdh1 (protein, UniProt O88989 1-334)
# chain: MSEPIRVLVTGAAGQIAYSLLYSIGNGSVFGKDQPIILVLLDITPMMGVLDGVLMELQDCALPLLQDVIATDKEEVAFKDLDVAVLVGSMPRREGMERKDLLKANVKIFKSQGAALEKYAKKSVKVIVVGNPANTNCLTASKSAPSIPKENFSCLTRLDHNRAKSQIALKLGVTADDVKNVIIWGNHSSTQYPDVNHAKVKLQGKEVGVYEALKDDSWLKGEFITTVQQRGAAVIKARKLSSAMSAAKAISDHIRDIWFGTPEGEFVSMGVISDGNSYGVPDDLLYSFPVVIKNKTWKFVEGLPINDFSREKMDLTAKELTEEKETAFEFLSSA
# B5: Hpx (protein, UniProt P20059 24-460)
# chain: NPLPAAHETVAKGENGTKPDSDVIEHCSDAWSFDATTMDHNGTMLFFKGEFVWRGHSGIRELISERWKNPVTSVDAAFRGPDSVFLIKEDKVWVYPPEKKENGYPKLFQEEFPGIPYPPDAAVECHRGECQSEGVLFFQGNRKWFWDFATRTQKERSWPAVGNCTAALRWLERYYCFQGNKFLRFNPVTGEVPPRYPLDARDYFISCPGRGHGKLRNGTAHGNSTHPMHSRCNADPGLSALLSDHRGATYAFSGSHYWRLDSSRDGWHSWPIAHHWPQGPSAVDAAFSWDEKVYLIQGTQVYVFLTKGGNNLVSGYPKRLEKELGSPPGISLDTIDAAFSCPGSSKLYVTSGRRLWWLDLKSGAQATWAELSWPHEKVDGALCLEKSLGPYSCSSNGPNLFFIHGPNLYCYSSIDKLNAAKSLPQPQKVNSILGCSQ
# B6: Ca3 (protein, UniProt P14141 1-260)
# chain: MAKEWGYASHNGPEHWHELYPIAKGDNQSPIELHTKDIRHDPSLQPWSVSYDPGSAKTILNNGKTCRVVFDDTFDRSMLRGGPLSGPYRLRQFHLHWGSSDDHGSEHTVDGVKYAAELHLVHWNPKYNTFGEALKQPDGIAVVGIFLKIGREKGEFQILLDALDKIKTKGKEAPFNHFDPSCLFPACRDYWTYHGSFTTPPCEECIVWLLLKEPMTVSSDQMAKLRSLFASAENEPPVPLVGNWRPPQPIKGRVVRASFK
# B7: Pccb (protein, UniProt P07633 29-541)
# chain: SLCSQPVSVNERIENKRHAALLGGGQRRIDAQHKRGKLTARERISLLLDPGSFLESDMFVEHRCADFGMAAEKNKFPGDSVVTGRGRINGRLVYVFSQDFTVFGGSLSGAHAQKICKIMDQAITVGAPVIGLNDSGGARIQEGVESLAGYADIFLRNVTASGVIPQISLIMGPCAGGAVYSPALTDFTFMVKDTSYLFITGPEFVKSVTNEDVTQEQLGGAKTHTTVSGVAHRAFDNDVDALCNLREFLNFLPLSNQDPASIRECHDPSDRLVPELDTVVPLESSKAYNMLDIIHAVIDEREFFEIMPNYAKNIVIGFARMNGRTVGIVGNQPNVASGCLDINSSVKGARFVRFCDAFSIPLITFVDVPGFLPGTAQEYGGIIRHGAKLLYAFAEATVPKITVITRKAYGGAYDVMSSKHLLGDTNYAWPTAEIAVMGAKGAVEIIFKGHEDVEAAQAEYVEKFANPFPAAVRGFVDDIIQPSSTRARICCDLEVLASKKVHRPWRKHANVPL
# B8: Dcx (protein, UniProt Q9ESI7 1-365)
# chain: MELDFGHFDERDKASRNMRGSRMNGLPSPTHSAHCSFYRTRTLQALSNEKKAKKVRFYRNGDRYFKGIVYAVSSDRFRSFDALLADLTRSLSDNINLLQGVRYIYTIDGSRKIGSMDELEEGESYVCSSDNFFKKVEYTKNVNPNWSVNVKTSANMKAPQSLASSNSAQARENKDFVRPKLVTIIRSGVKPRKAVRVLLNKKTAHSFEQVLTDITEAIKLETGVVKKLYTLDGKQVTCLHDFFGDDDVFIACGPEKFRYAQDDFSLDENECRVMKGNPSATAGPKASPTPQKTSAKSPGPMRRSKSPADSGNDQDANGTSSSQLSTPKSKQSPISTPTSPGSLRKHKDLYLPLSLDDSDSLGDSM
# B9: Hadhb (protein, UniProt Q60587 35-475)
# chain: SAPAVQTKSKKTLAKPNLKNIVVVEGVRIPFLLSGTSYKDLMPHDLARAALSGLLYRTNIPKDVVDYIIFGTVIQEVKTSNVAREAALGAGFSDKTPAHTVTMACISSNQAMTTAVGLIASGQCDVVVAGGVELMSDVPIRHSRNMRKMMLDLNKAKTLAQRLSLLTKFRLNFLSPELPAVAEFSTNETMGHSADRLAAAFAVSRMEQDKYALRSHSLAKKAQDEGHLSDIVPFKVPGKDTVSKDNGIRPSSLEQMAKLKPAFIKPYGTVTAANSSFLTDGASAMLIMSEDRALAMGYKPKAYLRDFIYVSQDPKDQLLLGPTYATPKVLEKAGLTMNDIDAFEFHEAFSGQILANFKAMDSDWFAQNYMGRKTKVGAPPLEKFNIWGGSLSLGHPFGATGCRLVMAAANRLRKDGGQYALVAACAAGGQGHAMIVEAYPK
# B10: Pygm (protein, UniProt P09812 1-842)
# chain: MSRPLSDQDKRKQISVRGLAGVENVSDLKKNFNRHLHFTLVKDRNVATPRDYYFALAHTVRDHLVDRWIRTQQHYYAKDPKRIYYLSLELYMGRTLQNTMVNLALENACDEATYQLGLDMEELEEIEEDAGLGNGGLGRLAACFLDSMATLGLAAYGYGIRYEFGIFNQKICGGWQMEEADDWLRYGNPWEKARPEFTLPVHFYGRVEHTSQGAKWVDTQVVLAMPYDTPVPGYRNNVVNTMRLWSAKAPPYFNLKDFNVGGYIQAVLDRNLAENISRVLYPNDKFFEGKELRLKQEYFVVAATLQDIIRRFKSSKFGCRDPVRTNFDAFPDKVAIQLNDTHPSLAIPELIRILVDLERLDWDKAWDVTVKTCAYTNHTVLPEALERWPVHLMETLLPRHLQIIYEINQRFLNRVAAAFPGDVDRLRRMSLVEEGAVKRINMAHLCIAGSHAVNGVARIHSEILKKTIFKDFYELEPHKFQNKTNGITPRRWLVLCNPGLAEVIAERIGEEYISDLDQLRKLLSYLDDQAFIRDVAKVKQENKLKFSAYLETEYKVHINPNSLFDVQVKRIHEYKRQLLNCLHIITLYNRIKREPNRFMVPRTIMIGGKAAPGYHMAKMIIKLITAIGDVVNHDPAVGDRFRVIFLENYRVSLAEKVIPAADLSEQISTAGTEASGTGNMKFMLNGALTIGTMDGANVEMAEEAGEDNFFIFGMRVEDVERLDQRGYNAQEYYDRIPELRQIIEQLSSGFFSPKQPDLFKDIVNMVMHHDRFKVFADYEEYIKCQDKVSELYKNPREWTRMVIRNIATSGKFSSDRTIAQYAREIWGLEPSRQRLPAPDEKI
# B11: Aldoa (protein, UniProt P05065 1-364)
# chain: MPHPYPALTPEQKKELADIAHRIVAPGKGILAADESTGSIAKRLQSIGTENTEENRRFYRQLLLTADDRVNPCIGGVILFHETLYQKADDGRPFPQVIKSKGGVVGIKVDKGVVPLAGTNGETTTQGLDGLSERCAQYKKDGADFAKWRCVLKIGEHTPSSLAIMENANVLARYASICQQNGIVPIVEPEILPDGDHDLKRCQYVTEKVLAAVYKALSDHHVYLEGTLLKPNMVTPGHACTQKFSNEEIAMATVTALRRTVPPAVPGVTFLSGGQSEEEASINLNAINKCPLLKPWALTFSYGRALQASALKAWGGKKENLKAAQEEYIKRALANSLACQGKYTPSGQSGAAASESLFISNHAY
# B12: Prdx2 (protein, UniProt P35704 1-198)
# chain: MASGNAHIGKPAPDFTGTAVVDGAFKEIKLSDYRGKYVVLFFYPLDFTFVCPTEIIAFSDHAEDFRKLGCEVLGVSVDSQFTHLAWINTPRKEGGLGPLNIPLLADVTKSLSQNYGVLKNDEGIAYRGLFIIDAKGVLRQITVNDLPVGRSVDEALRLVQAFQYTDEHGEVCPAGWKPGSDTIKPNVDDSKEYFSKHN
# Target: TAP-Kv4.2 (human) (UniProt Q9NZV8)
# Experiment: affinity purification with mass spectrometry; TAP-Kv4.2 expressed by lentivirus in rat hippocampal neurons, harvested at DIV14; weak lysis buffer of the kit (0.1% NP-40); streptavidin resin, then calmodulin resin; gel cut into high and low molecular weight fragments; no MS of the control sample
row,binding,Binder
1,binds,B1
2,binds,B2
3,binds,B3
4,binds,B4
5,binds,B5
6,binds,B6
7,binds,B7
8,binds,B8
9,binds,B9
10,binds,B10
11,binds,B11
12,binds,B12

# No constants are given. Whether binding was seen depends on the method and setting. Binding seen in cells or lysates may run through a third protein. Here binding means that the protein was enriched with, or labelled near, the bait; the list need not be complete.
